From article PMC9023492
Residue numbers refer to the chain shown, from its start. Numbers in names are those of the source. Read-outs that look alike come from different tables or passages of the source. These are yes or no findings as the source states them, for the method shown. In cells and extracts the contact can be indirect. Some results given as binding are weak or reduced against the parent protein; the word gives no strength. For some assays here: Tags and fused reporters may be left off the sequences shown.

Chains of the proteins cited; added tags and fusions are not shown.
UniProt Q92830: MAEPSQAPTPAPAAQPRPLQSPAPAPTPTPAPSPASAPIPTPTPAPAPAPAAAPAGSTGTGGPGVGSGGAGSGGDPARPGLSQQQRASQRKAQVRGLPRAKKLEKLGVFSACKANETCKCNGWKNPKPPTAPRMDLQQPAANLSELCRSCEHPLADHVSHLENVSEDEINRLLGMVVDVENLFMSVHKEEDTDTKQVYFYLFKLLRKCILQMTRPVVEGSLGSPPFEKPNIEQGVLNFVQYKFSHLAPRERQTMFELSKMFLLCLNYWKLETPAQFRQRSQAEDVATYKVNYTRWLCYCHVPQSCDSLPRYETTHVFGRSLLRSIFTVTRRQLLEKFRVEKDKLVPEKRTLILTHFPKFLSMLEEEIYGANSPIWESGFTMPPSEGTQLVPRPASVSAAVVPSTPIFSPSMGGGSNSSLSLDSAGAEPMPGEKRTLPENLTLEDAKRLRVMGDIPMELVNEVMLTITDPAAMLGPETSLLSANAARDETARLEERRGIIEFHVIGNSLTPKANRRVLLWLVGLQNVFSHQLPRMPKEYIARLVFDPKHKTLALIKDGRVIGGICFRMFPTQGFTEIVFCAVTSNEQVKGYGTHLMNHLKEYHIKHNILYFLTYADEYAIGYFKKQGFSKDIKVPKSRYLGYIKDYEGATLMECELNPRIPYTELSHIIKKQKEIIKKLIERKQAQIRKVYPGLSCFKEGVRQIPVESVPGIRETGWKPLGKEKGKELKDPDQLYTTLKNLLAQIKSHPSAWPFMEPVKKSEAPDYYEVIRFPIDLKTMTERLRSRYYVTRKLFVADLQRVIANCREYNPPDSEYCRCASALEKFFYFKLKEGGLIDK
UniProt P01106: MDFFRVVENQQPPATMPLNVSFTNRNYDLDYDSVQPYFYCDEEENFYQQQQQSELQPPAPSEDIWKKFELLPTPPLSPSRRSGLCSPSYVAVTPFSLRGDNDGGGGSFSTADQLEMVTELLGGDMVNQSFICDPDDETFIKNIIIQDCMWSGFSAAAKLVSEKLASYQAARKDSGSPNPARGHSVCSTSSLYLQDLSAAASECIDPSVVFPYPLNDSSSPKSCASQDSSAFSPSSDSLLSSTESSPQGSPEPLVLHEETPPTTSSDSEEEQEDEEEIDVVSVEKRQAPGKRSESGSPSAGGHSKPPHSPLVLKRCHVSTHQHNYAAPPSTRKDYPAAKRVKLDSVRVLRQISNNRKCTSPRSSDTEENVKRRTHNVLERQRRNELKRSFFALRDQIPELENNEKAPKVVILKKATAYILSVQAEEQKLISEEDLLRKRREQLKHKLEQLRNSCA

T1: GST-SNIP1 (UniProt Q8TAD8)
T1 sequence: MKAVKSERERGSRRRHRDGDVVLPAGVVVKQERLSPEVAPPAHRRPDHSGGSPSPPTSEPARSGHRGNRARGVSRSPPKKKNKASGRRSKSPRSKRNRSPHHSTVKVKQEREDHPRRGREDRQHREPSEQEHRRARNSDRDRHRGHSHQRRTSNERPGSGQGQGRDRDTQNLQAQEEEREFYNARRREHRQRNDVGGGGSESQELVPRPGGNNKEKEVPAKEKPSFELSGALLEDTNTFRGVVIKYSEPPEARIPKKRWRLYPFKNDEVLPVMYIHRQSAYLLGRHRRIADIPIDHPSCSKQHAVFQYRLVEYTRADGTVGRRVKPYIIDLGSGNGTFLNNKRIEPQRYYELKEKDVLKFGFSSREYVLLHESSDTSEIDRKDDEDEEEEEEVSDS

B1: endogenous SNIP1 (protein, UniProt Q8TAD8 1-396)
chain: T1 sequence
B2: HA-SNIP1 (protein, UniProt Q8TAD8 1-396)
chain: T1 sequence
B3: HA-SNIP1^K301R (protein, UniProt Q8TAD8 1-396)
chain: T1 sequence with K301R

How the values were obtained:
[1] = target: His-KAT2A (in HEK-293T cells) (UniProt Q92830); assay: co-IP; competition in HEK-293T cells: immunoprecipitation of KAT2A with forced overexpression of c-MYC or of SNIP1, harvested 48 h after transfection
[2] = target: His-KAT2A (in HEK-293T cells) (UniProt Q92830); assay: co-IP; HEK-293T cells transfected with tagged constructs, IP buffer with 1% Triton X-100, Protein A/G magnetic beads, immunoblot; in some panels with co-expressed KMT5A^WT or KMT5A^R336G
[3] = target: T1, GST-SNIP1; assay: pull-down; GST pull-down with purified GST-SNIP1, GST-SNIP1-K301M or GST alone and His-KAT2A, western blot
[4] = target: endogenous KAT2A (human (endogenous in MDA-MB-231 and BT549)) (UniProt Q92830); assay: co-IP; endogenous proteins, MDA-MB-231 and BT549 lysates, IP buffer with 1% Triton X-100, Protein A/G magnetic beads, washes with 0.5 M NaCl; also in cells with KAT2A knock-down and in sgKMT5A cells re-expressing KMT5A^WT or KMT5A^R336G
[5] = target: endogenous KAT2A (human (endogenous in MDA-MB-231 and BT549)) (UniProt Q92830); assay: as above; remark: listed apart in the source
[6] = target: endogenous c-MYC (human (endogenous in MDA-MB-231 and BT549)) (UniProt P01106); assay: as above
[7] = target: Flag-c-MYC (in HEK-293T cells) (UniProt P01106); assay: co-IP; HEK-293T cells transfected with tagged constructs, IP buffer with 1% Triton X-100, Protein A/G magnetic beads, immunoblot; in some panels with co-expressed KMT5A^WT or KMT5A^R336G
[8] = target: His-KAT2A (in HEK-293T cells) (UniProt Q92830); assay: as above; remark: listed apart in the source

Molecule | binding [1] | binding [7] | binding [8] | also measured
Flag-c-MYC (in HEK-293T cells) (from UniProt P01106 1-454) | binds | – | – | binding [2]: binds
His-KAT2A (of the GST pull-down) (from UniProt Q92830 1-837) (enzyme) | – | – | – | binding [3]: binds
endogenous c-MYC (from UniProt P01106 1-454) | – | – | – | binding [4]: binds
B1 | – | – | – | binding [5]: binds; binding [6]: binds
B2 | binds | binds | binds | –
B3 | – | binds | binds | –
